The text below walks through data of patent US6727227B1 (Obschestvo S Ogranichennoi Otvetstven-Nostiju “Klinika …, priority 2002, dated 2004).

This data set is described as follows: general procedure: solution-phase peptide synthesis; N,N'-dicyclohexylcarbodiimide / N-oxybenzotriazol; N-oxysuccinimide ester. To be noted: acetate, transferred to free form.

*: point of attachment. Cbz = O=C(OCc1ccccc1)*; OBn = c1ccc(CO*)cc1

Cbz-AE(OBn)D(OBn)G-OBn had a step yield (coupling step) of 82%.

Consider L-alanyl-L-glutamyl-L-aspartyl-glycine, for which the “final HPLC purity” value (late stage modification step, 220 nm) came out at 98.45%.
